Measurements from patent publication EP1757701A1.
These are yes or no findings as the source states them, for the method shown. Some binding calls cover weakened binding; strength is not graded here.

B1: … (peptide)
peptide: KEASCSYWLGELVWCSDLWE
B2: … (peptide)
peptide: WRGGCSWHMGELVWCEHDME
B3: … (peptide)
peptide: AVSKCSFHMGELVWCSDVMN
B4: … (peptide)
peptide: NQVSCSYSRGELVWCSKQSQ
B5: … (peptide)
peptide: GRMECAWHQGELVWCTPTLE
B6: … (peptide)
peptide: GTMECSWHQGELVWCTPTLA
B7: … (peptide)
peptide: EMRDCSWHLGELVWCAHMEG
B8: … (peptide)
peptide: GSWECAYHLGELVWCETGSG
B9: … (peptide)
peptide: VAEPCAYHLGELVWCEVLKG
B10: … (peptide)
peptide: KEAMCSYWLGELVWCESDMP
B11: … (peptide)
peptide: KVADCAWHMGELVWCTEVEG
B12: … (peptide)
peptide: GEEDCSYHLGELVMCTELDD
B13: … (peptide)
peptide: GVADCAWHLGELVWCTERED
B14: … (peptide)
peptide: GEEDCAWHLGELVWCSGGDF
B15: … (peptide)
peptide: WEADCAWHLGELVWCTKVEE
B16: … (peptide)
peptide: GEADCSYHLGELVWCNDFEE
B17: … (peptide)
peptide: WVDCAYHLGELVWCSTFEE
B18: … (peptide)
peptide: WVEDCAWHMGELVWCTKVDE
B19: … (peptide)
peptide: READCAWHLGELVWCSERDL
B20: … (peptide)
peptide: EEASCAYHLGELVWCDAFDV
B21: … (peptide)
peptide: RVASCAWHLGELVWCDGLDG
B22: … (peptide)
peptide: GEADCAWHLGELVWCTKVEE
B23: … (peptide)
peptide: GEASCAYHLGELVWCDEGEG
B24: … (peptide)
peptide: RVEDCAYHLGELVWCTEGDE
B25: … (peptide)
peptide: EEPDCSWHLGELVMCTPMEV
B26: … (peptide)
peptide: KEADCAWHMGELVWCSEMEG
B27: … (peptide)
peptide: EQADCAWHLGELVWCTPMVF
B28: … (peptide)
peptide: EEPDCSWHLGELVWCTPIEV
B29: … (peptide)
peptide: GEPDCAWHLGELVWCTPMVF
B30: … (peptide)
peptide: GEQDCSYHMGELVWCTTVDG
B31: … (peptide)
peptide: GVRNCAYHLGELVWCTPMEF
B32: … (peptide)
peptide: RVADCAWHMGELVWCSELEV
B33: … (peptide)
peptide: GEADCAWHLGELVWCTPMDL
B34: … (peptide)
peptide: GEQDCSWHLGELVWCTPMEV
B35: … (peptide)
peptide: GMRDCSYHLGELVWCSDMEL
B36: … (peptide)
peptide: EVADCSWHLGELVWCTEGEF
B37: … (peptide)
peptide: GEEDCAWHLGELVWCTDVED
B38: … (peptide)
peptide: EVEDCAYHLGELVWCSDLEG
B39: … (peptide)
peptide: WEEDCAWHLGELVWCAEFDE
B40: … (peptide)
peptide: KEASCAWHLGELVWCSEVEE
B41: … (peptide)
peptide: KEASCSYWLGELVWCDTLTE
B42: … (peptide)
peptide: KEASCSYWLGELVWCSPGVE
B43: … (peptide)
peptide: KEASCSYWLGELVWCSGVEG
B44: … (peptide)
peptide: KEASCSYWLGELVWCSAGVE
B45: … (peptide)
peptide: ESEDCSYWLGELVWCVAGVE
B46: … (peptide)
peptide: EKEDCSYWLGELVWCVAGVE
B47: … (peptide)
peptide: EDPDCSYWLGELVWCVAGVE
B48: … (peptide)
peptide: EEADCSYWLGELVWCVAGVE
B49: … (peptide)
peptide: SETTCSYWLGELVWCVAGVE
B50: … (peptide)
peptide: AWKTCQWLGELVWCVAGVE
B51: … (peptide)
peptide: DLADCSYWLGELVWCSRVEG
B52: … (peptide)
peptide: KEADCAWHLGELVWCVAGVE
B53: … (peptide)
peptide: KEAECSYHLGELVWCVAGVE
B54: … (peptide)
peptide: KEARCWYWHGELVWCSDPEE
B55: … (peptide)
peptide: KEASCSYHLGELVWCVAGVE
B56: … (peptide)
peptide: KEASCSWHLGELVWCVAGVE
B57: … (peptide)
peptide: KEASCSYWLGELVWCTEGVE
B58: … (peptide)
peptide: KEASCSYWLGELVWCDDGVE
B59: … (peptide)
peptide: KEASCSYWLGELVWCSEGVE
B60: … (peptide)
peptide: KEASCSYWLGEVWKCKSGVE
B61: … (peptide)
peptide: KEASCSYWLGELVWCDNGVE
B62: … (peptide)
peptide: KEASCSYWLGELVWCDTFDE
B63: … (peptide)
peptide: KEASCSYWLGELVWCDGLDE
B64: … (peptide)
peptide: KEASCSYWLGELVWCVGLDE
B65: … (peptide)
peptide: KEASCSYWLGELVWCEDTLE
B66: … (peptide)
peptide: KEASCSYWLGELVWCEDTME
B67: … (peptide)
peptide: KEASCSYWLGELVWCEDMME
B68: … (peptide)
peptide: WVEDCSWHMGELVWCDGGEF

Molecular target: IgG-Fc [IgG part: P01857]
Assay: phage clone selected on IgG-Fc

Binder | binding
B1 | binds
B2 | binds
B3 | binds
B4 | binds
B5 | binds
B6 | binds
B7 | binds
B8 | binds
B9 | binds
B10 | binds
B11 | binds
B12 | binds
B13 | binds
B14 | binds
B15 | binds
B16 | binds
B17 | binds
B18 | binds
B19 | binds
B20 | binds
B21 | binds
B22 | binds
B23 | binds

Binder | binding
B24 | binds
B25 | binds
B26 | binds
B27 | binds
B28 | binds
B29 | binds
B30 | binds
B31 | binds
B32 | binds
B33 | binds
B34 | binds
B35 | binds
B36 | binds
B37 | binds
B38 | binds
B39 | binds
B40 | binds
B41 | binds
B42 | binds
B43 | binds
B44 | binds
B45 | binds
B46 | binds

Binder | binding
B47 | binds
B48 | binds
B49 | binds
B50 | binds
B51 | binds
B52 | binds
B53 | binds
B54 | binds
B55 | binds
B56 | binds
B57 | binds
B58 | binds
B59 | binds
B60 | binds
B61 | binds
B62 | binds
B63 | binds
B64 | binds
B65 | binds
B66 | binds
B67 | binds
B68 | binds
